For experiment [1], the system named is Arachidonic Acid-Induced Inflammation of the Mouse Ear. The experiment is described as follows: Arachidonic acid-induced mouse ear inflammation. Format: in vivo, Balb/c mice. To be noted: Table 7; 100 mg/kg, p.o. The source says: (§1) In the following Examples where mice were used, they were male Balb/c mice (20-28 g), and where rats were used, they were male Lewis rats (180-210 g). All mice and rats were obtained from Charles River Breeding Laboratories, Kingston, N.Y. Within a single experiment, mice and rats were sex and age matched.
(§2) The compounds of Formula (IA) were used either as the free base or in the appropriate salt form. Levamisole was used as the hydrochloride salt. The compounds were homogenized in 0.5% tragacanth. Compounds were administered by gavage at the indicated dose in a final volume of 10 ml/kg. Nordihydroguaiaretic acid (NDGA) was solubilized in dimethylacetamide and diluted with olive oil for subcutaneous administration.
Arachidonic acid in acetone (2 mg/20 ul) was applied to the inner surface of the left ear. The thickness of both ears was then measured with a dial micrometer one hour after treatment, and the data were expressed as the change in thickness (10⁻³ cm) between treated and untreated ears.
Test compounds were given orally in 0.5% tragacanth at the times indicated in the text prior to the topical application of arachidonic acid.
Parenteral administration of compound was accomplished by subcutaneous injection of solution as indicated.

Experiment [2] concerns Polymorphonuclear Leukocytes. The experiment is described as follows: Mouse Carrageenan Peritonitis (PMN infiltration). Type of experiment: in vivo, Balb/c mice. As to conditions: Table 3; 100 mg/kg, p.o.
Source text: as §1, §2
Mice were pretreated with either the test compound or vehicle one hour before the intraperitoneal injection of a 1.0% carrageenan suspension in saline (0.2 ml/ mouse). Mice were sacrificed by cervical dislocation two hours after injection, and 3.0 ml of phosphate buffered saline, without Ca⁺⁺ or Mg⁺⁺, was injected into the peritoneum. Following massage, a 2.0 ml aliquot of the lavage fluid was removed, and the total cell count determined on a Coulter counter and differential cell count determined by microscopic examination of Giesma-stained slides.

Marks after values point to notes of the source that are not given here.

Turning to `COc1ccc2cc([C@H](C)C(=O)O)ccc2c1` [Naproxen], in experiment [1], the “Increase in Ear Thickness at 1 Hour (x 10⁻³ cm)” value is recorded as 26.4 ± 2.6 x 10⁻³ cm. For the same compound, in experiment [2], the “% Change” value was -11^b % and the “PMN x 10⁻⁵/ml (Mean ± S.D.)” value was 10.28 ± 2.49 x 10⁻⁵/ml.

The record behind these values is patent publication EP0231622B1, “Inhibition of the 5-lipoxygenase pathway” (priority 1985, dated 1987).
